# According to the supplement of paper PMC12819154, “High-throughput peptide-centric local stability assay extends protein–ligand identification to membrane proteins, tissues and bacteria” (Nature Structural & Molecular Biology, 2025):
# Amino acid sequences for entries named in this document (tags omitted). A change or cut given only in a name is not applied to a line headed by its entry.
# UniProt Q13351: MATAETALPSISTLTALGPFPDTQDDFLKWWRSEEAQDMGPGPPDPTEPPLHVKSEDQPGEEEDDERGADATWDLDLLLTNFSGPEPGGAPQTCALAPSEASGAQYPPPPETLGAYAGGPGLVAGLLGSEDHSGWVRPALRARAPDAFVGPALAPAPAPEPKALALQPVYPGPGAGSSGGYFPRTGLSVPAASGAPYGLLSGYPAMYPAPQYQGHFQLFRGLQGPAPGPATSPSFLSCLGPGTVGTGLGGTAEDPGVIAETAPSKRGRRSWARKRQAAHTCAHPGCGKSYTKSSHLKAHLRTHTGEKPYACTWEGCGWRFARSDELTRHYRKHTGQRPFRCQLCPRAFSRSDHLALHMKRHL
# UniProt Q13618, whole entry: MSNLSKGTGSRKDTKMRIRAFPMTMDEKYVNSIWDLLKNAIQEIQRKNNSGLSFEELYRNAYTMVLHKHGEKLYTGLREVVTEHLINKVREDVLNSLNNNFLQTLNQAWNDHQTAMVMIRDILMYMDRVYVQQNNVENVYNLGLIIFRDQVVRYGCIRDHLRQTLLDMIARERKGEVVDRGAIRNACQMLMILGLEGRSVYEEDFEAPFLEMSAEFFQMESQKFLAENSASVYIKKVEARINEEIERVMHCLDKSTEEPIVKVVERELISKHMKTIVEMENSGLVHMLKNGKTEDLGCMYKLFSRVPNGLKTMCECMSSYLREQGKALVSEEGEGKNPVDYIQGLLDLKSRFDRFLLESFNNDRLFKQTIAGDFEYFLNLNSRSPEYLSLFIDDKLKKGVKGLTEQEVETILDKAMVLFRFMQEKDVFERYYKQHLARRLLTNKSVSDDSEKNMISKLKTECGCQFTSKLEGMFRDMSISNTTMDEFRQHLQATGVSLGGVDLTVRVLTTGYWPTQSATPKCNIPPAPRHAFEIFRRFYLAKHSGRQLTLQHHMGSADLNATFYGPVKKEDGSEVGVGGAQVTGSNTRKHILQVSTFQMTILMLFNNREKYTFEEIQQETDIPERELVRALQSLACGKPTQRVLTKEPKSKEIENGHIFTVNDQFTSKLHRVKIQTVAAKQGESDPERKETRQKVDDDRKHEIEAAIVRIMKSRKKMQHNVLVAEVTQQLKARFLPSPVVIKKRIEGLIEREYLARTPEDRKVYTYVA
# UniProt Q13415: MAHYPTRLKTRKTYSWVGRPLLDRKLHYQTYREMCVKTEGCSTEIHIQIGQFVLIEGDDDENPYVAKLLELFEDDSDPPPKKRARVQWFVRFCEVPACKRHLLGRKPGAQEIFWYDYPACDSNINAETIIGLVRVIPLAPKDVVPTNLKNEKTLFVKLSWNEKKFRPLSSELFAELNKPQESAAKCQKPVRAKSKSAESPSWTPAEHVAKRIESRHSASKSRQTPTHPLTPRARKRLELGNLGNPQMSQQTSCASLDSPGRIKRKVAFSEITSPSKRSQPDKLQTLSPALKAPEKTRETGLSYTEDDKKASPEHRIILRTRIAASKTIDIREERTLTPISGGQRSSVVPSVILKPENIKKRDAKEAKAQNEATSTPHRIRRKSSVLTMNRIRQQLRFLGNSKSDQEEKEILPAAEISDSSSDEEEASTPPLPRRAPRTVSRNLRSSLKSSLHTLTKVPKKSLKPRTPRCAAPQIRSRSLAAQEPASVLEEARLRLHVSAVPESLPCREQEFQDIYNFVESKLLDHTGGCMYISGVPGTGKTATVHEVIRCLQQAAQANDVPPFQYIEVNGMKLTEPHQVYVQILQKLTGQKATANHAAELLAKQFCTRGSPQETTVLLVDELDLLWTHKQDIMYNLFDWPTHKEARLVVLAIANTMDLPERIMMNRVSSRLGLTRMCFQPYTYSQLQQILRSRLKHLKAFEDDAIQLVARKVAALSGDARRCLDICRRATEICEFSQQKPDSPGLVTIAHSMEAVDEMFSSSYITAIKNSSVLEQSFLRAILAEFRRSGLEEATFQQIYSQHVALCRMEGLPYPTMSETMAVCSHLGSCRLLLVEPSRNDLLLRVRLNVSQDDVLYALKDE
# UniProt Q14586: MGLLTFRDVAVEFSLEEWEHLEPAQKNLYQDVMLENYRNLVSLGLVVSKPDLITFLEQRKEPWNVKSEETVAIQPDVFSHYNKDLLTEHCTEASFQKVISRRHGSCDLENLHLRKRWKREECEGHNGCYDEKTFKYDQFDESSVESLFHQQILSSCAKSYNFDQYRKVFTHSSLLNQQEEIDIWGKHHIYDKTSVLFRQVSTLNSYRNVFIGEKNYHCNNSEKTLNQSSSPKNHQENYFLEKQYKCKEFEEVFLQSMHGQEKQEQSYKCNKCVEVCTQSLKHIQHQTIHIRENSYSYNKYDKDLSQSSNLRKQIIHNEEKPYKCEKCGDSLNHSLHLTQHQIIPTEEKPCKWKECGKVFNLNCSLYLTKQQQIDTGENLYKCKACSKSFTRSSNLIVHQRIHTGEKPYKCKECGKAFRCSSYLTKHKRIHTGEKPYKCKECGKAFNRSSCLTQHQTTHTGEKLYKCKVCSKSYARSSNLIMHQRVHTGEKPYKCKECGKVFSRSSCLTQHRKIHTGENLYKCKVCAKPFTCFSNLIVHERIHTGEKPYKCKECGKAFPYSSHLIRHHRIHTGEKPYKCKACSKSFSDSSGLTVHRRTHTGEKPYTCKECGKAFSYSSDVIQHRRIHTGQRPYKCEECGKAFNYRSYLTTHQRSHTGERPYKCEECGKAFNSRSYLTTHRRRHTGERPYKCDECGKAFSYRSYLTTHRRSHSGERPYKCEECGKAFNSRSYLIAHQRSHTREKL
# UniProt Q14191, whole entry: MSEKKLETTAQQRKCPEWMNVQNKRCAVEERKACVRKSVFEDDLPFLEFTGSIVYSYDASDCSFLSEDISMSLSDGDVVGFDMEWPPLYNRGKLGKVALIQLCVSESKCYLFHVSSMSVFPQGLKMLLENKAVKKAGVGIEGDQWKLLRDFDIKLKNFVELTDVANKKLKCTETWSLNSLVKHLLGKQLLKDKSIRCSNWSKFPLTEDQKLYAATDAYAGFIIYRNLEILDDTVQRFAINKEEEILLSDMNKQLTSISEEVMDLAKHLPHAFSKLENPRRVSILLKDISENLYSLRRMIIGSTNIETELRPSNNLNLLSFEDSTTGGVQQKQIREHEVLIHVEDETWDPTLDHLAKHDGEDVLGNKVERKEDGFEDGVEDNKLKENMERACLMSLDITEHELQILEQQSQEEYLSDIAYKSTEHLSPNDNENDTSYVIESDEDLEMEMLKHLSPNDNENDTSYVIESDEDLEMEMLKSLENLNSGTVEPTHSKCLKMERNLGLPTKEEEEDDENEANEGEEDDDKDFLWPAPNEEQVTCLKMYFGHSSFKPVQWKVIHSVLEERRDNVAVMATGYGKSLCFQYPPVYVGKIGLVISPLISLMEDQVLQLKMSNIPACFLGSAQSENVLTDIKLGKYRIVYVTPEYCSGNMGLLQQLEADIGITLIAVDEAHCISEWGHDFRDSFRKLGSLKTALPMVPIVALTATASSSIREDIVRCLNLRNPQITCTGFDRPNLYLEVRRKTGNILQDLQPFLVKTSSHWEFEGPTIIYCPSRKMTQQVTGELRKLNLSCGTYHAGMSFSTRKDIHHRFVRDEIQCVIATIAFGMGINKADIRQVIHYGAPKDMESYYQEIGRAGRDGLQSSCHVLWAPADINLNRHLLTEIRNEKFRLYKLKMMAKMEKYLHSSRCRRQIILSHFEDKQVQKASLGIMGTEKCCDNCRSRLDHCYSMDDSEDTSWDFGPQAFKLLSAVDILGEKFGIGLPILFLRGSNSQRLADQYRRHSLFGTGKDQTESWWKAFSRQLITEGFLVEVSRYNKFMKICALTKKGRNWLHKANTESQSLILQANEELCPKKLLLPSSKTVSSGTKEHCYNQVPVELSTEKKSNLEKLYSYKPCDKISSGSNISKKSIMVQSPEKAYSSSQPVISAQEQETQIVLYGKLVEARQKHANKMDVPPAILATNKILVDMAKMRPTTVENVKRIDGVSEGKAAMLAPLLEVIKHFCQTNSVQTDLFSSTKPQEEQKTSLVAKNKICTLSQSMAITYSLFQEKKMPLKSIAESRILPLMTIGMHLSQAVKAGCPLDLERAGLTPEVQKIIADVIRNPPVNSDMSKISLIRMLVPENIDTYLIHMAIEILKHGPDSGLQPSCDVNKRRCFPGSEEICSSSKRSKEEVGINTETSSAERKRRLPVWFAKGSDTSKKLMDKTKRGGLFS
# UniProt Q13404: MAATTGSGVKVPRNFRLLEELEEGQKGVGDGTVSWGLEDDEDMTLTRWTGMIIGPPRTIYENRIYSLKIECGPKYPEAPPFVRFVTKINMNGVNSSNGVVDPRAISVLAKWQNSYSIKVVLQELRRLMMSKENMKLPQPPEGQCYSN
# UniProt Q13303: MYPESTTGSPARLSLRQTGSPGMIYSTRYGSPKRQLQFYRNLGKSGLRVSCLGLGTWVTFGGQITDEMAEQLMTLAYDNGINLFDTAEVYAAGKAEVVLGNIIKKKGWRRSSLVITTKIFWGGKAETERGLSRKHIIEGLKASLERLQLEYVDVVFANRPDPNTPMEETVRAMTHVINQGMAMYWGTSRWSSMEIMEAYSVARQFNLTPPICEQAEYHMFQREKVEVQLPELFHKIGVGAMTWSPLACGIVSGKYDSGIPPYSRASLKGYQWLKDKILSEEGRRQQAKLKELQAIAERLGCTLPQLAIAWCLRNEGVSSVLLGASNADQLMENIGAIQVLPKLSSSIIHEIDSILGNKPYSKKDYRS
# UniProt Q149N8: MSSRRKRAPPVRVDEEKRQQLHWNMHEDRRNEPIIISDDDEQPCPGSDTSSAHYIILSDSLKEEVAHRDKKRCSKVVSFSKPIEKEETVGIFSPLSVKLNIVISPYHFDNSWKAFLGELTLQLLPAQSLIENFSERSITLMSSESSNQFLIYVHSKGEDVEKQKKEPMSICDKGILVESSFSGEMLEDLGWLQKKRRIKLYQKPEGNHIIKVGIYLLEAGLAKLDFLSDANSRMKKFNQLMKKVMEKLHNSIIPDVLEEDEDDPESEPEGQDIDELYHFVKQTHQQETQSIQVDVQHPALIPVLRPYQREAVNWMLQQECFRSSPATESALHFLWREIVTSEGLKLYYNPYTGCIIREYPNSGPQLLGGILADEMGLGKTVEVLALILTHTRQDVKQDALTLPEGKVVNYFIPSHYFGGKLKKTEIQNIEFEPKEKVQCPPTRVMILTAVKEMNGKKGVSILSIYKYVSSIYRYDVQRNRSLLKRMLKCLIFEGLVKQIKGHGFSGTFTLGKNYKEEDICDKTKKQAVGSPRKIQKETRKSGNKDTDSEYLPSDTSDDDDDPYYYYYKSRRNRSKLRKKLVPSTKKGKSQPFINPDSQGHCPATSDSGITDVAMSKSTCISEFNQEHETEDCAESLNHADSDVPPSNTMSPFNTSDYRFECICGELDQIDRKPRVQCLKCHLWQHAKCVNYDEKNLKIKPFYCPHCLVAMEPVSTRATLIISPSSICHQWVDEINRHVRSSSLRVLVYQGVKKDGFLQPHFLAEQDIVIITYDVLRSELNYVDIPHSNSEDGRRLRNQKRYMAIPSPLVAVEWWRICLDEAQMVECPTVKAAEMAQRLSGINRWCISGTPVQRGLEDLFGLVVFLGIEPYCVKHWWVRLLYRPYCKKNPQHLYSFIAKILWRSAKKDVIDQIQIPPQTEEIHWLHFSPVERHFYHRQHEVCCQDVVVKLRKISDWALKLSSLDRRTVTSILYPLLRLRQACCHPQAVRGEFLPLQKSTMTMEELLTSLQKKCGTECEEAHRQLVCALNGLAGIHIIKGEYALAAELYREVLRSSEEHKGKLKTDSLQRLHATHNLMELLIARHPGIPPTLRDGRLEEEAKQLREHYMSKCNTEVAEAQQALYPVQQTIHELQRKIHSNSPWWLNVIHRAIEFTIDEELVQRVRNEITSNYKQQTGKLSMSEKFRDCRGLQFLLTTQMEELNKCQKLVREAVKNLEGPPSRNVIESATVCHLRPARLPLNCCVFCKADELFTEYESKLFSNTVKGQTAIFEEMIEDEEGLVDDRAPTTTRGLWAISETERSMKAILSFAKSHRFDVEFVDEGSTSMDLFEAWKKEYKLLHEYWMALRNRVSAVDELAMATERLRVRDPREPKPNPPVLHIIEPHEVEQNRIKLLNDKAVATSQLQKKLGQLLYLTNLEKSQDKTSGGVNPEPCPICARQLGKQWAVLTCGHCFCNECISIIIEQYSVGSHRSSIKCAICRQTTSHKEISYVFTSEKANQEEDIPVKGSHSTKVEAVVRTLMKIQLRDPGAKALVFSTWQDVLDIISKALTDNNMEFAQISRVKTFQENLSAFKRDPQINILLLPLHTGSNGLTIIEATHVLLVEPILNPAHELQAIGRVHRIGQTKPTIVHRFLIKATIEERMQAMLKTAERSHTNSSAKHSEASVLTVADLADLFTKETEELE
# UniProt Q14696: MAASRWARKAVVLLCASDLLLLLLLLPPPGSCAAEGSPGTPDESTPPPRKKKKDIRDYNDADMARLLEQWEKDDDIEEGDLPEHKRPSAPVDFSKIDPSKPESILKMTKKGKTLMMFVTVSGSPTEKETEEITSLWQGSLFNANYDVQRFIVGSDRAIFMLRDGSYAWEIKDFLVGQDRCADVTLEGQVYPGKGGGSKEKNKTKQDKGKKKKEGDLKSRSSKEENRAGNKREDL
# The other results are listed elsewhere or left out. Most entries show no effect beyond the scatter of the controls.
# Compound: Cc1nc(Nc2ncc(C(=O)Nc3c(C)cccc3Cl)s2)cc(N2CCN(CCO)CC2)n1 [dasatinib]
# Assay: log2 fold change of tryptic peptide abundance, ligand vs vehicle (limited proteolysis) (log2 ratio); higher = more trypsin-susceptible (destabilized)
# Conditions: ligand concentration: 5 uM; sample: K562 cleared lysate
row,Target,log2 fold change
1,"TRA2A (peptide sequence: VDYSITKR, peptide start residue: 192) (UniProt Q13595)",0.367
2,"KLF1 (peptide sequence: QAAHTCAHPGCGK, peptide start residue: 276) (UniProt Q13351)",0.0106
3,"CUL3 (peptide sequence: FLLESFNNDR, peptide start residue: 355) (UniProt Q13618)",-0.33
4,"MYO9B (peptide sequence: PGQLERPTSLALDSR, peptide start residue: 1245) (UniProt Q13459)",0.465
5,"FKBP8 (peptide sequence: SCSLVLEHQPDNIK, peptide start residue: 294) (UniProt Q14318)",0.103
6,"CIRBP (peptide sequence: SGGYGGSRDYYSSR, peptide start residue: 132) (UniProt Q14011)",0.64
7,"UniProt Q14929 (peptide sequence: GADTSESGAVIR, peptide start residue: 203)",-0.26
8,"ORC1 (peptide sequence: LLLVEPSRNDLLLR, peptide start residue: 831) (UniProt Q13415)",-0.263
9,"LAGE3 (peptide sequence: GGVDTAAAPAGGAPPAHAPGPGR, peptide start residue: 25) (UniProt Q14657)",0.0555
10,"UniProt Q14586 (peptide sequence: SYLTTHQR, peptide start residue: 645)",-0.681
11,"USP4 (peptide sequence: DRVMEVFLVPADPHCRPTQYR, peptide start residue: 486) (UniProt Q13107)",0.747
12,"CBLB (peptide sequence: CTGPLANSLSEK, peptide start residue: 686) (UniProt Q13191)",-0.308
13,"NUMA1 (peptide sequence: YVQELAAVRADAETR, peptide start residue: 1476) (UniProt Q14980)",-0.468
14,"NNT (peptide sequence: NIPQGAPVK, peptide start residue: 443) (UniProt Q13423)",-0.478
15,"DYRK1A (peptide sequence: HQQGQGDDSSHKK, peptide start residue: 119) (UniProt Q13627)",0.658
16,"UniProt Q14565 (peptide sequence: FHEEAGIFK, peptide start residue: 210)",0.287
17,"WRN (peptide sequence: DNVAVMATGYGK, peptide start residue: 566) (UniProt Q14191)",0.541
18,"COTL1 (peptide sequence: AGGANYDAQTE, peptide start residue: 132) (UniProt Q14019)",0.491
19,"UBE2V1 (peptide sequence: LLEELEEGQK, peptide start residue: 15) (UniProt Q13404)",0.1
20,"KCNAB2 (peptide sequence: QTGSPGMIYSTR, peptide start residue: 17) (UniProt Q13303)",0.183
21,"UniProt Q13164 (peptide sequence: DGPSAPLEAPEPR, peptide start residue: 493)",0.276
22,"SHPRH (peptide sequence: GEFLPLQK, peptide start residue: 989) (UniProt Q149N8)",0.166
23,"MTF1 (peptide sequence: TFNCESEGCSK, peptide start residue: 228) (UniProt Q14872)",-0.231
24,"NBR1 (peptide sequence: EQVVNETVEKLEQK, peptide start residue: 163) (UniProt Q14596)",-0.159
25,"UniProt Q14696 (peptide sequence: LLEQWEKDDDIEEGDLPEHK, peptide start residue: 66)",0.0485
26,"ASAH1 (peptide sequence: ESLDVYELDAK, peptide start residue: 300) (UniProt Q13510)",-0.188
27,"UBE4A (peptide sequence: SPLTMDQIRPNTELK, peptide start residue: 1034) (UniProt Q14139)",-0.279
28,"UniProt Q14159 (peptide sequence: HQCISYQK, peptide start residue: 282)",0.592

# Two entries picked at random from the list so far:
row,Target,log2 fold change
4,"MYO9B (peptide sequence: PGQLERPTSLALDSR, peptide start residue: 1245) (UniProt Q13459)",0.465
6,"CIRBP (peptide sequence: SGGYGGSRDYYSSR, peptide start residue: 132) (UniProt Q14011)",0.64
